In the supplement of paper PMC8728848:
The other results are listed elsewhere or left out.

Legend:
Assay in all cases: glycan array binding signal (z-score within array); higher = stronger binding
Conditions in all cases: glycan notation: IUPAC condensed, linker removed
GalNAc(b1-4)Gal(b1-4)Glc = molecular target: GalNAc(b1-4)Gal(b1-4)Glc
Summary of the method: (§1)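 Columns mapping to the same glycan were averaged after glycan names were converted to IUPAC-condensed notation. The data come from 3228 arrays in the Consortium for Functional Glycomics database, limited to those with an available protein sequence. Binding is reported as a within-array Z-score averaged across arrays of one protein sequence and across linkers.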

GalNAc(b1-4)GlcNAc = molecular target: GalNAc(b1-4)GlcNAc
Summary of the method: as §1

[1] = molecular target: GalNAc(b1-4)GlcNAc(b1-2)Man
Summary of the method: as §1

[2] = molecular target: GalNAc(b1-4)GlcNAc(b1-2)Man(a1-3)[GalNAc(b1-4)GlcNAc(b1-2)Man(a1-6)]Man(b1-4)GlcNAc(b1-4)GlcNAc
Summary of the method: as §1

[3] = molecular target: GalNAc(b1-4)GlcNAc(b1-3)GalNAc(b1-4)GlcNAc
Summary of the method: as §1

GalNAc(b1-4)GlcNAc6S = molecular target: GalNAc(b1-4)GlcNAc6S
Summary of the method: as §1

GalNAc(b1-6)GalNAc = molecular target: GalNAc(b1-6)GalNAc
Summary of the method: as §1

GalNAc3S(b1-4)GlcNAc = molecular target: GalNAc3S(b1-4)GlcNAc
Summary of the method: as §1

GalNAc3S(b1-4)GlcNAc3S = molecular target: GalNAc3S(b1-4)GlcNAc3S
Summary of the method: as §1

[4] = molecular target: GalNAc3S(b1-4)[Fuc(a1-3)]GlcNAc
Summary of the method: as §1

GalNAc4S6S(b1-4)GlcNAc = molecular target: GalNAc4S6S(b1-4)GlcNAc
Summary of the method: as §1

GalNAc6S(b1-4)GlcNAc = molecular target: GalNAc6S(b1-4)GlcNAc
Summary of the method: as §1

Glc(a1-4)Glc = molecular target: Glc(a1-4)Glc
Summary of the method: as §1

[5] = molecular target: Glc(a1-4)Glc(a1-4)Glc(a1-4)Glc
Summary of the method: as §1

Glc(a1-6)Glc(a1-6)Glc = molecular target: Glc(a1-6)Glc(a1-6)Glc
Summary of the method: as §1

[6] = molecular target: Glc(a1-6)Glc(a1-6)Glc(a1-6)Glc
Summary of the method: as §1

Glc(b1-4)Glc = molecular target: Glc(b1-4)Glc
Summary of the method: as §1

Glc(b1-6)Glc = molecular target: Glc(b1-6)Glc
Summary of the method: as §1

GlcA(b1-3)GlcNAc = molecular target: GlcA(b1-3)GlcNAc
Summary of the method: as §1

GlcA(b1-6)Gal = molecular target: GlcA(b1-6)Gal
Summary of the method: as §1

[7] = molecular target: GlcA3S(b1-3)Gal(b1-4)GlcNAc(b1-2)Man
Summary of the method: as §1

[8] = molecular target: GlcNAc(a1-3)Gal(b1-4)GlcNAc
Summary of the method: as §1

[9] = molecular target: GlcNAc(a1-4)Gal(b1-3)GlcNAc
Summary of the method: as §1

[10] = molecular target: GlcNAc(a1-4)Gal(b1-4)GalNAc
Summary of the method: as §1

[11] = molecular target: GlcNAc(a1-4)Gal(b1-4)GlcNAc
Summary of the method: as §1

[12] = molecular target: GlcNAc(a1-4)Gal(b1-4)GlcNAc(b1-3)Gal(b1-4)Glc
Summary of the method: as §1

[13] = molecular target: GlcNAc(a1-4)Gal(b1-4)GlcNAc(b1-3)Gal(b1-4)GlcNAc
Summary of the method: as §1

[14] = molecular target: GlcNAc(a1-4)Gal(b1-4)GlcNAc(b1-3)Gal(b1-4)GlcNAc(b1-3)Gal(b1-4)GlcNAc
Summary of the method: as §1

[15] = molecular target: GlcNAc(a1-6)Gal(b1-4)GlcNAc
Summary of the method: as §1

[16] = molecular target: GlcNAc(b1-2)Gal(b1-3)GalNAc
Summary of the method: as §1

[17] = molecular target: GlcNAc(b1-2)Man(a1-3)[GlcNAc(b1-2)Man(a1-6)]Man(b1-4)GlcNAc(b1-4)GlcNAc
Summary of the method: as §1

[18] = molecular target: GlcNAc(b1-2)Man(a1-3)[GlcNAc(b1-2)Man(a1-6)]Man(b1-4)GlcNAc(b1-4)[Fuc(a1-6)]GlcNAc
Summary of the method: as §1

[19] = molecular target: GlcNAc(b1-2)Man(a1-3)[GlcNAc(b1-4)][GlcNAc(b1-2)Man(a1-6)]Man(b1-4)GlcNAc(b1-4)GlcNAc
Summary of the method: as §1

[20] = molecular target: GlcNAc(b1-2)Man(a1-3)[GlcNAc(b1-4)][GlcNAc(b1-2)Man(a1-6)]Man(b1-4)GlcNAc(b1-4)[Fuc(a1-6)]GlcNAc
Summary of the method: as §1

[21] = molecular target: GlcNAc(b1-2)[GlcNAc(b1-4)]Man(a1-3)[GlcNAc(b1-2)Man(a1-6)]Man(b1-4)GlcNAc(b1-4)GlcNAc
Summary of the method: as §1

[22] = molecular target: GlcNAc(b1-2)[GlcNAc(b1-4)]Man(a1-3)[GlcNAc(b1-4)][GlcNAc(b1-2)Man(a1-6)]Man(b1-4)GlcNAc(b1-4)GlcNAc
Summary of the method: as §1

[23] = molecular target: GlcNAc(b1-2)[GlcNAc(b1-4)]Man(a1-3)[GlcNAc(b1-4)][GlcNAc(b1-2)[GlcNAc(b1-6)]Man(a1-6)]Man(b1-4)GlcNAc(b1-4)GlcNAc
Summary of the method: as §1

B1: PX14351B-bth-512-36-512 (Bacteroides thetaiotaomicron) (protein)
chain: ASETQQWKTLEDTRSALMGVYGLTRAALADNNTHWICGDLRKGDFTVYKRSDLQAVSDNELNKPYDLLKKVSNWRRFYAVINAASVFMEKAPRTVELDRSYSEQNLKYDIAQVRALRAFAYFYMVRIWGDVPLVTYSYDNGTFPSMPRTDAQTVLSYAKAELLTAIEDLPYQYGTQTNLYYGSYGAQWQGKLFNKLSAYSVLAHICAWQGNYAEAETYSAFIIDHASEINAKYTSIADLTSETGLFYSNASVKGSRILGFNFAHNDNEATQSGHLEQLTLAYPLVQKSYPEIYISKDSLFSIFTNFDDLRFGIIDTIKYSSYYVQNLNEETPVFSKIKIIQDGSAKDNDFGVFGSSIVFTRLEDITLLRAEALCALNRSTEAVSYLNMIRTNRGLREVSFKKDFGNNRESLIAEIFEERRRELMGEGWRWYDLVRRQKLMKDNEAFLRLISSGGIYWPVSEDIITANSQIEQNEFWK
In the case of B1, the “glycan array binding signal (z-score)” value (GalNAc(b1-4)Gal(b1-4)Glc) is reported as -0.134, the “glycan array binding signal (z-score)” value (GalNAc(b1-4)GlcNAc) is reported as -0.183 and the “glycan array binding signal (z-score)” value [1] is reported as -0.064. For the same binder, the “glycan array binding signal (z-score)” value [2] was 0.664, the “glycan array binding signal (z-score)” value [3] was 0.118 and the “glycan array binding signal (z-score)” value (GalNAc(b1-4)GlcNAc6S) was -0.306. The “glycan array binding signal (z-score)” value (GalNAc(b1-6)GalNAc) was -0.059, the “glycan array binding signal (z-score)” value (GalNAc3S(b1-4)GlcNAc) was -0.173 and the “glycan array binding signal (z-score)” value (GalNAc3S(b1-4)GlcNAc3S) was -0.185. For the same binder, the “glycan array binding signal (z-score)” value [4] was -0.329, the “glycan array binding signal (z-score)” value (GalNAc4S6S(b1-4)GlcNAc) was -0.242 and the “glycan array binding signal (z-score)” value (GalNAc6S(b1-4)GlcNAc) was -0.158. For the same binder, the “glycan array binding signal (z-score)” value (Glc(a1-4)Glc) was -0.324, the “glycan array binding signal (z-score)” value [5] was -0.295 and the “glycan array binding signal (z-score)” value (Glc(a1-6)Glc(a1-6)Glc) was -0.359. The “glycan array binding signal (z-score)” value [6] was -0.137, the “glycan array binding signal (z-score)” value (Glc(b1-4)Glc) was -0.293 and the “glycan array binding signal (z-score)” value (Glc(b1-6)Glc) was 0.065. The “glycan array binding signal (z-score)” value (GlcA(b1-3)GlcNAc) was -0.346, the “glycan array binding signal (z-score)” value (GlcA(b1-6)Gal) was -0.339 and the “glycan array binding signal (z-score)” value [7] was -0.139. For the same binder, the “glycan array binding signal (z-score)” value [8] was -0.287, the “glycan array binding signal (z-score)” value [9] was -0.297 and the “glycan array binding signal (z-score)” value [10] was -0.223. For the same binder, the “glycan array binding signal (z-score)” value [11] was -0.287, the “glycan array binding signal (z-score)” value [12] was -0.26 and the “glycan array binding signal (z-score)” value [13] was -0.245. For the same binder, the “glycan array binding signal (z-score)” value [14] was -0.25, the “glycan array binding signal (z-score)” value [15] was 0.016 and the “glycan array binding signal (z-score)” value [16] was 0.023. For the same binder, the “glycan array binding signal (z-score)” value [17] was -0.287, the “glycan array binding signal (z-score)” value [18] was -0.091 and the “glycan array binding signal (z-score)” value [19] was -0.34. For the same binder, the “glycan array binding signal (z-score)” value [20] was -0.224, the “glycan array binding signal (z-score)” value [21] was -0.199 and the “glycan array binding signal (z-score)” value [22] was -0.105. The “glycan array binding signal (z-score)” value [23] was -0.392.
